At least one compound was matched to its structure with a doubt left.
Legend:
[1] = tested on: Pasteurella; experiment: Pasteurella disease treatment; details: second group of 10 sheep, both antibiotics together
[2] = tested on: Streptococcus isolated from cow's milk; experiment: Streptococcus germs cultured in a lab setting

`CN(C)[C@@H]1C(O)=C(C(N)=O)C(=O)[C@@]2(O)C(O)=C3C(=O)c4c(O)cccc4[C@@](C)(O)[C@H]3[C@H](O)[C@@H]12` [Oxytetracycline] was tested, and the “speed of improvement versus product group” value [1] was “slower than in the first group” and the killing of germs [2] was “not all germs were killed”.

Source: patent US10842829B2, “Natural product to improve immunity and combat viral diseases, bacterial diseases, fungal diseases, and cancer diseases” (priority 2017, dated 2020)
